The effect of the compound repeats well; differences between the knockouts mostly do not.
System: SKBR3
Experiment: relative cell number vs DMSO control (72 h) (% of DMSO); higher = less growth inhibition (more cells)
Description: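 QMAP-Seq: a pool of 5 breast cancer cell lines (ZR-75-1, SKBR3, HCC-38, MDA-MB-231, BT-20), each carrying 12 doxycycline-inducible Cas9 sgRNA perturbations (11 knockouts plus non-targeting sgNT), was treated with compounds for 72 h at four 10-fold doses (10 nM-10 uM or 1 nM-1 uM range). Barcodes were amplified and sequenced, and cell number was interpolated from 293T spike-in standard curves. The result is expressed as % of the median of DMSO wells. Two biological replicates.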

C#Cc1cccc(Nc2ncnc3cc(OCCOC)c(OCCOC)cc23)c1 [Erlotinib]
Settings | relative cell number
sgRNA knockout: sgATF3, 10 nM | 147
sgRNA knockout: sgATF3, 100 nM | 98.2
sgRNA knockout: sgATF3, 1000 nM | 90.3
sgRNA knockout: sgATF3, 10000 nM | 44.4
sgRNA knockout: sgATF4, 10 nM | 122
sgRNA knockout: sgATF4, 100 nM | 89.1
sgRNA knockout: sgATF4, 1000 nM | 87.34
sgRNA knockout: sgATF4, 10000 nM | 33.1
sgRNA knockout: sgATF6, 10 nM | 118
sgRNA knockout: sgATF6, 100 nM | 96.3
sgRNA knockout: sgATF6, 1000 nM | 84.6
sgRNA knockout: sgATF6, 10000 nM | 29.1
sgRNA knockout: sgATG7, 10 nM | 132
sgRNA knockout: sgATG7, 100 nM | 87.8
sgRNA knockout: sgATG7, 1000 nM | 91.56
sgRNA knockout: sgATG7, 10000 nM | 47.9
sgRNA knockout: sgERN1, 10 nM | 110
sgRNA knockout: sgERN1, 100 nM | 84.1
sgRNA knockout: sgERN1, 1000 nM | 103
sgRNA knockout: sgERN1, 10000 nM | 38.1
sgRNA knockout: sgHSF1, 10 nM | 107.1
sgRNA knockout: sgHSF1, 100 nM | 75.6
sgRNA knockout: sgHSF1, 1000 nM | 87.9
sgRNA knockout: sgHSF1, 10000 nM | 36.6
sgRNA knockout: sgHSF2, 10 nM | 120
sgRNA knockout: sgHSF2, 100 nM | 92.6
sgRNA knockout: sgHSF2, 1000 nM | 77.1
sgRNA knockout: sgHSF2, 10000 nM | 33.7
sgRNA knockout: sgKEAP1, 10 nM | 109
sgRNA knockout: sgKEAP1, 100 nM | 83.5
sgRNA knockout: sgKEAP1, 1000 nM | 85.7
sgRNA knockout: sgKEAP1, 10000 nM | 35.9
sgRNA knockout: sgNFE2L2, 10 nM | 110
sgRNA knockout: sgNFE2L2, 100 nM | 87.3
sgRNA knockout: sgNFE2L2, 1000 nM | 89.9
sgRNA knockout: sgNFE2L2, 10000 nM | 35.9
sgRNA knockout: sgSLC35F2, 10 nM | 99.5
sgRNA knockout: sgSLC35F2, 100 nM | 89.5
sgRNA knockout: sgSLC35F2, 1000 nM | 83.4
sgRNA knockout: sgSLC35F2, 10000 nM | 35
sgRNA knockout: sgXBP1, 10 nM | 107
sgRNA knockout: sgXBP1, 100 nM | 88.8
sgRNA knockout: sgXBP1, 1000 nM | 91.96
sgRNA knockout: sgXBP1, 10000 nM | 40.6

COc1cc2nccc(Oc3ccc(NC(=O)C4(C(=O)Nc5ccc(F)cc5)CC4)cc3)c2cc1OC [Cabozantinib]
Settings | relative cell number
sgRNA knockout: sgATF3, 10 nM | 129.2
sgRNA knockout: sgATF3, 100 nM | 96.3
sgRNA knockout: sgATF3, 1000 nM | 102
sgRNA knockout: sgATF3, 10000 nM | 55.1
sgRNA knockout: sgATF4, 10 nM | 101
sgRNA knockout: sgATF4, 100 nM | 104
sgRNA knockout: sgATF4, 1000 nM | 85
sgRNA knockout: sgATF4, 10000 nM | 55.6
sgRNA knockout: sgATF6, 10 nM | 99.4
sgRNA knockout: sgATF6, 100 nM | 83.6
sgRNA knockout: sgATF6, 1000 nM | 83.7
sgRNA knockout: sgATF6, 10000 nM | 57.5
sgRNA knockout: sgATG7, 10 nM | 119
sgRNA knockout: sgATG7, 100 nM | 102
sgRNA knockout: sgATG7, 1000 nM | 104
sgRNA knockout: sgATG7, 10000 nM | 47.5
sgRNA knockout: sgERN1, 10 nM | 128
sgRNA knockout: sgERN1, 100 nM | 107
sgRNA knockout: sgERN1, 1000 nM | 109
sgRNA knockout: sgERN1, 10000 nM | 55
sgRNA knockout: sgHSF1, 10 nM | 101
sgRNA knockout: sgHSF1, 100 nM | 76.5
sgRNA knockout: sgHSF1, 1000 nM | 73.397
sgRNA knockout: sgHSF1, 10000 nM | 51.7
sgRNA knockout: sgHSF2, 10 nM | 89.1
sgRNA knockout: sgHSF2, 100 nM | 88
sgRNA knockout: sgHSF2, 1000 nM | 82.4
sgRNA knockout: sgHSF2, 10000 nM | 59.4
sgRNA knockout: sgKEAP1, 10 nM | 98.7
sgRNA knockout: sgKEAP1, 100 nM | 103
sgRNA knockout: sgKEAP1, 1000 nM | 81.8
sgRNA knockout: sgKEAP1, 10000 nM | 51.1
sgRNA knockout: sgNFE2L2, 10 nM | 105
sgRNA knockout: sgNFE2L2, 100 nM | 86.6
sgRNA knockout: sgNFE2L2, 1000 nM | 93.3
sgRNA knockout: sgNFE2L2, 10000 nM | 63.9
sgRNA knockout: sgSLC35F2, 10 nM | 89.2
sgRNA knockout: sgSLC35F2, 100 nM | 79.2
sgRNA knockout: sgSLC35F2, 1000 nM | 94.8
sgRNA knockout: sgSLC35F2, 10000 nM | 57.7
sgRNA knockout: sgXBP1, 10 nM | 111
sgRNA knockout: sgXBP1, 100 nM | 113.4
sgRNA knockout: sgXBP1, 1000 nM | 80
sgRNA knockout: sgXBP1, 10000 nM | 44.8

COc1cc2c(cc1-c1c(C)noc1C)ncc1[nH]c(=O)n([C@H](C)c3ccccn3)c12 [IBET151]
Settings | relative cell number
sgRNA knockout: sgATF3, 10 nM | 106
sgRNA knockout: sgATF3, 100 nM | 121
sgRNA knockout: sgATF3, 1000 nM | 59.3
sgRNA knockout: sgATF3, 10000 nM | 33.9
sgRNA knockout: sgATF4, 10 nM | 94.9
sgRNA knockout: sgATF4, 100 nM | 84.1
sgRNA knockout: sgATF4, 1000 nM | 54
sgRNA knockout: sgATF4, 10000 nM | 37.3
sgRNA knockout: sgATF6, 10 nM | 85.6
sgRNA knockout: sgATF6, 100 nM | 95.11
sgRNA knockout: sgATF6, 1000 nM | 55.8
sgRNA knockout: sgATF6, 10000 nM | 42.8
sgRNA knockout: sgATG7, 10 nM | 65
sgRNA knockout: sgATG7, 100 nM | 98.3
sgRNA knockout: sgATG7, 1000 nM | 57.6
sgRNA knockout: sgATG7, 10000 nM | 47.5
sgRNA knockout: sgERN1, 10 nM | 101
sgRNA knockout: sgERN1, 100 nM | 66.1
sgRNA knockout: sgERN1, 1000 nM | 50
sgRNA knockout: sgERN1, 10000 nM | 43.7
sgRNA knockout: sgHSF1, 10 nM | 73
sgRNA knockout: sgHSF1, 100 nM | 70
sgRNA knockout: sgHSF1, 1000 nM | 51
sgRNA knockout: sgHSF1, 10000 nM | 40.1
sgRNA knockout: sgHSF2, 10 nM | 97.7
sgRNA knockout: sgHSF2, 100 nM | 78.1
sgRNA knockout: sgHSF2, 1000 nM | 41.1
sgRNA knockout: sgHSF2, 10000 nM | 34.5
sgRNA knockout: sgKEAP1, 10 nM | 76.2
sgRNA knockout: sgKEAP1, 100 nM | 79.8
sgRNA knockout: sgKEAP1, 1000 nM | 52.6
sgRNA knockout: sgKEAP1, 10000 nM | 42.9
sgRNA knockout: sgNFE2L2, 10 nM | 106
sgRNA knockout: sgNFE2L2, 100 nM | 61.4
sgRNA knockout: sgNFE2L2, 1000 nM | 51.1
sgRNA knockout: sgNFE2L2, 10000 nM | 45.4
sgRNA knockout: sgSLC35F2, 10 nM | 86.9
sgRNA knockout: sgSLC35F2, 100 nM | 94.6
sgRNA knockout: sgSLC35F2, 1000 nM | 51.9
sgRNA knockout: sgSLC35F2, 10000 nM | 38.9
sgRNA knockout: sgXBP1, 10 nM | 79.8
sgRNA knockout: sgXBP1, 100 nM | 93.4
sgRNA knockout: sgXBP1, 1000 nM | 59.8
sgRNA knockout: sgXBP1, 10000 nM | 31.6

— the supplement of paper PMC7661543
